Patent US8114393B2, “Methods and compositions for phosphate binding” (Wisconsin Alumni Research Foundation, priority 2005, dated 2012)

System: Intestinal Phosphate Absorption
Assay: Fecal calcium and phosphorus measurements, binder in purified diet
Assay type: in vivo, rats
Settings: 48 h fecal collection, mean ± SEM, control 11.23 ± 0.84
Text: Animals. Male Sprague-Dawley rats (Harlan Sprague-Dawley, Madison, Wis.) weighing approximately 120 grams were used in all experiments.
In experiments to measure fecal calcium and phosphorus levels, rats were fed purified diet described previously for 9 days. (Suda T et al., Biological activity of 25-hydroxyergocalciferol in rats, J Nutr 1970, 100:1049-1052). This diet was mixed with egg white protein (Harlan Teklad, Madison, Wis.) and contained 0.20% inorganic phosphorus and 0.47% calcium. The purified diet was supplemented with 100 μL soybean oil (Wesson oil, ConAgra Foods, Irvine, Calif.) containing 500 μg α-tocopherol, 60 μg menadione, 40 μg β-carotene, and 1.875 μg cholecalciferol three times each week.
Fecal calcium and phosphorus measurements. Rats were fed the purified diet described above or the same diet with 1.2% calcium, 0.15% Renagel®, or 0.15% DAB-4, DAB-8, or DAB-16 for 7 days. Rats were then moved to metabolic cages and fecal matter was collected for 48 hours. Fecal samples were frozen, lyophilized, and heated to over 600° C. overnight in a muffle oven. Remaining ash was then dissolved overnight in 25 mL 6 N HCl. The calcium concentration of the acid was determined by flame atomic absorption spectroscopy (Model 3110, Perkin Elmer, Norwalk, Conn.) using an aliquot of the dissolved ash diluted 1:40 with 1 g/L LaCl3. The phosphorus concentration of an aliquot of the dissolved ash was determined by a colorimetric assay described previously. (Itaya K et al., A new micromethod for the colorimetric determination of inorganic phosphate, Clin Chim Acta 1966, 14:361-366).
Statistical analysis. Data are presented as means±standard error of the means (SEM). Treatment groups were compared by a fully factorial analysis of variance (ANOVA) and means were subjected to Tukey, Scheffe, and Fisher's Least-Significant-Difference (LSD) tests (Systat 5.2.1, Systat Software, Inc., Point Richmond, Calif.). Differences were considered significant if at least two of the tests detected significance with a p-value <0.05, unless specified otherwise.

| Compound | mg Ca per gram feces (0.15% of diet for 7 days) [mg Ca per gram feces] | mg Ca per gram feces (1.20% Ca diet for 7 days) [mg Ca per gram feces] |
| --- | --- | --- |
| Cl.Cl.Cl.Cl.Cl.Cl.NCCCN(CCCN)CCCCN(CCCN)CCCN [DAB-4, polypropylenimine tetraamine Dendrimer perhydrochloride] | 14.28 ± 2.01 |  |
| CC(=O)[O-].CC(=O)[O-].[Ca+2] [calcium, Calcium acetate, reference compound] |  | 80.71 ± 4.60 |
| Polypropylenimine hexadecaamine Dendrimer perhydrochloride [DAB-16] | 15.82 ± 1.52 |  |
| polypropylenimine octaamine Dendrimer perhydrochloride [DAB-8] | 16.06 ± 1.44 |  |
